Measured values: patent US20090176891A1, “DENTAL COMPOSITION AND METHOD OF USE” (priority 2007, published 2009)
Some results were stated once for a whole list of compounds, not compound by compound.

Test: Organic leachables from light cured resin composite samples by UV-Vis spectroscopy
Type: physicochemical
Details: 200 mg sample (10 times clinical dose), 70 Kg patient

Structure (SMILES)	amount potentially leaching below acutely toxic levels
[H]/N=C(\N/C(=N/[H])NCCCCCCNC(=N)NC(=N)Nc1ccc(Cl)cc1)Nc1ccc(Cl)cc1 [CHX, chlorohexidine]	at least 4 orders of magnitude
C=C(C)C(=O)OCCOCCOCCOC(=O)C(=C)C [M4, triethylene glycol dimethacrylate]	at least 4 orders of magnitude
